From PubChem BioAssay record AID912 (NCATS, 2007).

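A cell-based FRET test of anthrax lethal toxin entry, tracked through the 460 nm emission signal; the cell line is not named here.
Each compound was tested as a concentration series from about 0.0005 to 40 µM.
The number is the fitted AC50 of the 460 nm signal alone; lower values mean a more potent effect. A falling signal goes with compounds filed as inhibitors or cytotoxic, a rising one with activators or fluorescent compounds (inferred from the filed classes).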

Values are in nM.
Common to all entries: measured here: 460 nm channel.
Part of the compounds only, not a random draw; the main read-out is not listed here.
A potency from a partial, single-point or poor curve is only a rough figure.
The first word of each remark tells which way the curve ran; it can be opposite to the aim of the assay.

{"smiles": "CC1CCN(CC[C@H]2CCCN2S(=O)(=O)c2cccc(O)c2)CC1", "AC50 (nM)": "100", "remark": "falling, full curve, poor fit"}
{"smiles": "Clc1ccc(NC2=NCCCCC2)cc1", "AC50 (nM)": "25.12", "remark": "falling, full curve, poor fit"}
{"smiles": "O=C(c1cccc(F)c1)N1CCC2(CCCN(Cc3nccs3)C2)CC1", "AC50 (nM)": "631", "remark": "falling, full curve"}
{"smiles": "Cc1ccc2[nH]c(=O)c(-c3nc4c(C)cccn4c3NCc3ccco3)cc2c1", "AC50 (nM)": "25118", "remark": "falling, single point"}
{"smiles": "Cc1cc(C(F)(F)F)nc(NCc2ccc(F)cc2)n1", "AC50 (nM)": "1995", "remark": "falling, full curve"}
{"smiles": "CC(C)n1nc(C(=O)Nc2nc3ccc(S(C)(=O)=O)cc3s2)c2ccccc2c1=O", "AC50 (nM)": "25118", "remark": "rising, single point"}
{"smiles": "CN1[C@H](CC(=O)c2ccccc2)CCC[C@H]1C[C@H](O)c1ccccc1", "AC50 (nM)": "12589", "remark": "falling, single point"}
{"smiles": "COc1ccc(C(CNC(=O)c2ccc(S(=O)(=O)N3CCOCC3)cc2)N2CCCCC2)cc1", "stereo": "stereo not given", "AC50 (nM)": "1000", "remark": "falling, partial curve, poor fit"}
{"smiles": "N#CCCn1c(=O)c(-c2ccc(Cl)cc2)nc2cnc(N3CCNCC3)nc21", "AC50 (nM)": "5012", "remark": "rising, partial curve"}
{"smiles": "CCCCCCNC(=O)Nc1ccc(S(=O)(=O)Nc2ccc(CCNC[C@H](O)COc3ccc(O)cc3)cc2)cc1", "AC50 (nM)": "15848", "remark": "falling, single point"}
{"smiles": "Cc1ccc(N)cc1CN1CCCC1=O", "AC50 (nM)": "19.95", "remark": "falling, full curve, poor fit"}
{"smiles": "CC1(C)CC(=O)C2=C(C1)N(CCN1CCOCC1)C1=C(C(=O)CC(C)(C)C1)C2c1cccc(F)c1", "AC50 (nM)": "12589", "remark": "rising, partial curve"}
{"smiles": "CCOC(=O)CCSc1nc(C)c2ccccc2n1", "AC50 (nM)": "199.5", "remark": "rising, full curve, poor fit"}
{"smiles": "Cn1nc(-c2ccc(Cl)cc2)c2cc(C(=O)NCCCN3CCCC3)sc21", "AC50 (nM)": "3162", "remark": "falling, full curve"}
{"smiles": "Cn1c(CCN2CCCCC2)nc2cc(NC(=O)C3CCCCC3)ccc21", "AC50 (nM)": "10", "remark": "falling, full curve, poor fit"}
{"smiles": "COc1cc(C(=O)Nc2nc(-c3cccs3)cs2)cc(OC)c1OC", "AC50 (nM)": "10000", "remark": "falling, single point"}
{"smiles": "CCc1cc2c(CN3CCN(C)CC3)cc(=O)oc2cc1O", "AC50 (nM)": "19952", "remark": "rising, partial curve"}
{"smiles": "CC(C)(C)c1ccc2c(c1)OCC(C(=O)O)O2", "stereo": "stereo not given", "AC50 (nM)": "31.62", "remark": "falling, full curve, poor fit"}
{"smiles": "CCn1cc(C(=O)NC2CCCC2)c(=O)c2cc(S(=O)(=O)N3CCOCC3)ccc21", "AC50 (nM)": "631", "remark": "falling, full curve, poor fit"}
{"smiles": "CCCc1ccc(Oc2cn[nH]c2-c2ccc(O)c(C)c2O)cc1", "AC50 (nM)": "12589", "remark": "falling, partial curve, poor fit"}
{"smiles": "O=C(O)C1[C@H]2C(=O)N(C3CCCC3)C[C@]23C=C[C@H]1O3", "stereo": "stereo not given in full", "AC50 (nM)": "19952", "remark": "falling, single point"}
{"smiles": "Cc1noc(C)c1S(=O)(=O)N(CC(=O)Nc1ccc2c(c1)OCO2)c1ccc(C(C)C)cc1", "AC50 (nM)": "6310", "remark": "falling, partial curve"}
{"smiles": "CCOC(=O)c1ccc(-n2[nH]c(-c3ccccc3)cc2=O)cc1", "AC50 (nM)": "5012", "remark": "falling, partial curve"}
{"smiles": "CCOc1nc(-c2ccccc2)ccc1-c1noc(-c2ccco2)n1", "AC50 (nM)": "3981", "remark": "falling, full curve"}
{"smiles": "FC(F)(F)c1cc(-c2ccco2)nc(NCc2cccs2)n1", "AC50 (nM)": "10000", "remark": "falling, single point"}

For reference, 2 entries once more:

| SMILES | AC50 (nM) | remark |
|---|---|---|
| `CCc1cc2c(CN3CCN(C)CC3)cc(=O)oc2cc1O` | 19952 | rising, partial curve |
| `Cn1c(CCN2CCCCC2)nc2cc(NC(=O)C3CCCCC3)ccc21` | 10 | falling, full curve, poor fit |